From article PMC4673326 (BioMed Research International, 2015)
End groups of sequences in plain letters are not given here.

Test: peptide synthesis
Conditions: whole synthesis, analytical HPLC

KWKYPKLLKKLLK
final HPLC purity: above 99%
